Source: PubChem BioAssay (NCATS)
The inconclusive results got no clear call from the source; some entries with a clear call stand among them for comparison. Potencies of inconclusive entries are doubtful fits and often do not repeat. The source made the active and inactive calls. Calls follow the shape of the dose curve; as a rule, active = well fitted inhibition curve with a large enough effect; inconclusive = small, poorly fitted or top-dose-only effect; inactive = no such curve, though single readings can be large or run the other way.

target: Retinaldehyde dehydrogenase 3 (Homo sapiens) (UniProt P47895); test: qHTS for Inhibitors of the Aldehyde Dehydrogenase Family (ALDH1A3) Validation screen (AID 2061312); details: ALDH1A3 enzyme inhibition qHTS validation, fluorescence; activity change, negative = inhibition: at 84.7 µM (top of the series); also: nearly all actives have a fitted effect of over 45% in size; as to activity change, negative = inhibition: % is scaled to controls: 0 for no effect and ±100 for the full control effect
Potency is read from the fitted curve at half-maximal effect.

SMILES | activity change, negative = inhibition | Potency
CN1CCN(c2nc3cc(C(F)(F)F)ccc3n3cccc23)CC1 | inactive: -2.15% [at 42.4 µM] | –
OCCN1CCN(CCCN2c3ccccc3Sc3ccc(C(F)(F)F)cc32)CC1 | – | inconclusive: 1.58 µM [inhibitor, full curve]
NC(=NCc1ccccc1)NC(=O)c1nc(Cl)c(N)nc1N | inactive: 3.19% [at 42.4 µM] | –
O=C1c2ccccc2C(=O)c2c(NCCc3ccc(O)cc3)ccc(NCCc3ccc(O)cc3)c21 | – | inconclusive: 11.2 µM [inhibitor, partial curve]
O=C1NC(=O)/C(=C/c2ccc(-c3ccc(F)cc3O)o2)S1 | – | inconclusive: 4.47 µM [inhibitor, partial curve]
Clc1ccc(C(c2ccccc2Cl)C(Cl)Cl)cc1 (stereo unspecified) | inactive: -0.87% [at 42.4 µM] | –
C=C1C(=O)O[C@@H]2[C@H]3O[C@]3(C)CCC=C(C)CC[C@@H]12 | inactive: 22.6% [at 42.4 µM] | –
COC(=O)[C@H]1[C@H]2C[C@H]3c4[nH]c5ccccc5c4CCN3C[C@H]2CC[C@@H]1O | – | inconclusive: 3.98 µM [inhibitor, full curve]
CN1CCN(CCCN2c3ccccc3Sc3ccc(C(F)(F)F)cc32)CC1 | – | inconclusive: 5.01 µM [inhibitor, partial curve]
N#CC(=C(\N)Sc1ccccc1N)/C(C#N)=C(/N)Sc1ccccc1N | – | inconclusive: 0.282 µM [inhibitor, full curve]
CC/C(=C(\c1ccccc1)c1ccc(OCCN(C)C)cc1)c1ccccc1 | – | inactive
O=c1c(O)c(-c2ccc(O)c(O)c2)oc2cc(O)cc(O)c12 | – | inconclusive: 6.31 µM [inhibitor, partial curve, poor fit]
O=C(Nc1nc2ccccc2n1CCN1CCOCC1)c1cccc([N+](=O)[O-])c1 | – | inconclusive: 0.316 µM [inhibitor, full curve]
c1ccc(CN2CCC3(CCCc4ccccc43)CC2)cc1 | – | inconclusive: 2.24 µM [inhibitor, full curve]
Cc1cc2c(cc1Cl)N(C(=O)Nc1ccc(Oc3cccnc3C)nc1)CC2 | – | inconclusive: 3.98 µM [inhibitor, full curve]
NCCCC(=O)O | inactive: 23.9% [at 42.4 µM] | –
O=C1Nc2ccc(I)cc2/C1=C/c1cc(Br)c(O)c(Br)c1 | – | inconclusive: 6.31 µM [inhibitor, full curve]

In the list so far, these contain a Cl atom.
SMILES | activity change, negative = inhibition | Potency
NC(=NCc1ccccc1)NC(=O)c1nc(Cl)c(N)nc1N | inactive: 3.19% [at 42.4 µM] | –
Clc1ccc(C(c2ccccc2Cl)C(Cl)Cl)cc1 (stereo unspecified) | inactive: -0.87% [at 42.4 µM] | –
Cc1cc2c(cc1Cl)N(C(=O)Nc1ccc(Oc3cccnc3C)nc1)CC2 | – | inconclusive: 3.98 µM [inhibitor, full curve]

system: not listed separately; test: BET inhibitor-based combinations targeting novel dependencies in MECOM-rearranged (r) AML: SET-2 cell line (AID 2202231); details: SET-2 AML cells viability, CellTiter-Glo luminescence, 48 h; viability: active compounds read low, concentration not given here; also: nearly all actives have a fitted effect of over 35% in size;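 as to viability: plate controls were DMSO treated cells for no effect and wells without cells for full effect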
How it was run: (§1)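 Here, 11-point titrations of each agent were applied to 500 seeded cells and incubated 48 hr; CellTiter-Glo signal, scaled against DMSO and empty wells, was integrated as AUC, then Z-scored within the individual line.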

SMILES | viability | Potency
OC(CCN1CCCCC1)(c1ccccc1)C1CC2C=CC1C2 (stereo unspecified) | inactive: 97.6% | –
NC(=NCc1ccccc1)NC(=O)c1nc(Cl)c(N)nc1N | – | inconclusive: 16.6 µM [inhibitor, partial curve]
O=C1NC(=O)/C(=C/c2ccc(-c3ccc(F)cc3O)o2)S1 | – | inconclusive: 20.9 µM [inhibitor, partial curve]
Clc1ccc(C(c2ccccc2Cl)C(Cl)Cl)cc1 (stereo unspecified) | inactive: 70.3% | –

system: not listed separately; test: BET inhibitor-based combinations targeting novel dependencies in MECOM-rearranged (r) AML: OCI-AML3 cell line (AID 2202232); details: CellTiter-Glo luminescence, 48 h; Potency: OCI-AML3 viability; viability (% of control): at 46 µM (top of the series); also: nearly all actives have a fitted effect of over 35% in size;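 as to viability (% of control): plate controls were DMSO vehicle wells for no effect and wells without cells for full effect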
How it was run: as §1

SMILES | Potency | viability (% of control)
OC(CCN1CCCCC1)(c1ccccc1)C1CC2C=CC1C2 (stereo unspecified) | inconclusive: 29.5 µM [inhibitor, partial curve, poor fit] | –
NC(=NCc1ccccc1)NC(=O)c1nc(Cl)c(N)nc1N | inconclusive: 29.5 µM [inhibitor, partial curve, poor fit] | –
C[C@@H](c1ncncc1F)[C@](O)(Cn1cncn1)c1ccc(F)cc1F | – | inactive: 124%
O=c1cc(-c2ccc(O)cc2)oc2cc(O)cc(O)c12 | inconclusive: 20.9 µM [inhibitor, single point] | –
CN1CCN(CCCN2c3ccccc3Sc3ccc(C(F)(F)F)cc32)CC1 | active: 16.6 µM | –
CC/C(=C(\c1ccccc1)c1ccc(OCCN(C)C)cc1)c1ccccc1 | inconclusive: 21.5 µM [inhibitor, partial curve, poor fit] | –
O=C(Nc1nc2ccccc2n1CCN1CCOCC1)c1cccc([N+](=O)[O-])c1 | inconclusive: 1.48 µM [inhibitor, full curve, poor fit] | –

system: not listed separately; test: BET inhibitor-based combinations targeting novel dependencies in MECOM-rearranged (r) AML: MV-4-11 cell line (AID 2202233); details: MV-4-11 AML viability, CellTiter-Glo luminescence, 48 h; viability, % of control: at 46 µM (top of the series) unless noted; also: nearly all actives have a fitted effect of over 45% in size;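 as to viability, % of control: plate controls were DMSO for no effect and blank wells for full effect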
How it was run: (§2)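 Normalized to DMSO and empty-well controls, the luminescence data from CellTiter-Glo after 48 hr drug exposure were fitted across 11 concentrations. Reported metrics are area under the dose-response curve and its Z-transformed form.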

SMILES | viability, % of control | Potency
C[C@@H](c1ncncc1F)[C@](O)(Cn1cncn1)c1ccc(F)cc1F | inactive: 114% | –
O=c1cc(-c2ccc(O)cc2)oc2cc(O)cc(O)c12 | – | inconclusive: 18.6 µM [inhibitor, partial curve, poor fit]
Clc1ccc(C(c2ccccc2Cl)C(Cl)Cl)cc1 (stereo unspecified) | – | inconclusive: 23.5 µM [inhibitor, single point]
CN1CCN(CCCN2c3ccccc3Sc3ccc(C(F)(F)F)cc32)CC1 | – | active: 20.9 µM
O=C(Nc1nc2ccccc2n1CCN1CCOCC1)c1cccc([N+](=O)[O-])c1 | – | inconclusive: 0.662 µM [inhibitor, full curve]

system: not listed separately; test: BET inhibitor-based combinations targeting novel dependencies in MECOM-rearranged (r) AML: HNT-34 cell line (AID 2202234); details: HNT-34 AML viability, CellTiter-Glo luminescence, 48 h; series mostly up to 46 µM; viability (% of control): at the top concentration; also: nearly all actives have a fitted effect of over 35% in size;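 as to viability (% of control): plate controls were vehicle wells for no effect and cell-free wells for full effect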
How it was run: as §2

SMILES | Potency | viability (% of control)
OCCN1CCN(CCCN2c3ccccc3Sc3ccc(C(F)(F)F)cc32)CC1 | active: 18.6 µM | –
C[C@@H](c1ncncc1F)[C@](O)(Cn1cncn1)c1ccc(F)cc1F | – | inactive: 107%
O=C1NC(=O)/C(=C/c2ccc(-c3ccc(F)cc3O)o2)S1 | inconclusive: 16.6 µM [inhibitor, partial curve] | –
Clc1ccc(C(c2ccccc2Cl)C(Cl)Cl)cc1 (stereo unspecified) | inconclusive: 26.3 µM [inhibitor, single point] | –
CN1CCN(CCCN2c3ccccc3Sc3ccc(C(F)(F)F)cc32)CC1 | inconclusive: 37.2 µM [inhibitor, single point] | –
O=c1c(O)c(-c2ccc(O)c(O)c2)oc2cc(O)cc(O)c12 | – | inactive: 111%
CCc1cncnc1N1CCN(Cc2nc3ccc(C(F)(F)F)cc3[nH]2)CC1 | inconclusive: 26.3 µM [inhibitor, single point] | –
O=C1Nc2ccc(I)cc2/C1=C/c1cc(Br)c(O)c(Br)c1 | inconclusive: 23.5 µM [inhibitor, single point] | –
